This data set has as its system human cardiac tissue strands (hESC, Hes2 derived cardiomyocytes). Description: Biorod drug testing: tissue beating pattern and contractile force by polymer wire deflection. The settings on record: 100 nM. In kind it is cell-based. On the procedure:
Cardiomyocytes were derived from human embryonic stem cell lines (hESC, Hes2). Embryoid bodies (EBs) were differentiated to the cardiovascular lineage and disassociated as previously described in Device 1 Methods. […] After seeding, brightfield images (see FIG. 39A for an example) of the tissue strands were taken every day (n=3 per group) using optical microscope (Olympus CKX41) and the diameters of the tissue strands at four distinct locations were analyzed with imageJ (see FIG. 39B for an example). Tissue strand lengths were also analyzed with same method.
Tissue contractile behavior tracing and measurement was carried out. POMac is auto-fluorescent at a wide range of wavelenths; therefore the wires were imaged with a fluorescence microscope under DAPI channel (e.g. 461 nm wavelength) to trace the bending movements of the wires. […] Image sequences were analyzed with ImageJ software using tracking plugin. […] Tissue stretching wires can be considered uniformly distributed Load, Wo (Load per force bearing length), which can be calculated with displacement of center point of wires in image sequence, and F can be calculated as well. […]

In the case of `Cc1cccc(CCN2CCC(C(=O)c3ccc(NS(C)(=O)=O)cc3)CC2)n1` [E4301], the tissue beating pattern result is “prolonged relaxation and occasional after beat”.

The values above are taken from patent US12158464B2, “Methods for modeling disease tissue using three-dimensional tissue systems” (priority 2013, dated 2024).
